PubChem BioAssay AID1159584, Peter MacCallum Cancer Centre | 2016
Screen: 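Knock-downs that harm CDH1-null cells more than parental MCF10A cells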 (primary screen). Cell system: human MCF10A breast epithelial cells, parental and CDH1-null. Reagent: siRNA against human genes. Detection: 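ATP luminescence (CellTiter-Glo) viability per line relative to mean mock wells over all plates, and the ratio of CDH1-null to parental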. Direction: CDH1-null / parental viability ratio: higher = CDH1-null cells survive relatively better than parental.
In all, the deposit lists about 18,000 reagents; this is a part drawn at random. Not all columns of the deposit are shown. Reagent sequences are not shown. Not stated in the record: the amount of reagent, the time to read-out.

GDPD4 (GeneID 220032)
- CDH1-null / parental viability ratio: 0.86

FLVCR2 (GeneID 55640)
- CDH1-null / parental viability ratio: 1.24

PGLS (GeneID 25796)
- CDH1-null / parental viability ratio: 1.37

SERPINA6 (GeneID 866)
- CDH1-null / parental viability ratio: 0.83

MACF1 (GeneID 23499)
- CDH1-null / parental viability ratio: 1.12

DPH1 (GeneID 1801)
- CDH1-null / parental viability ratio: 1.04

SUCNR1 (GeneID 56670)
- CDH1-null / parental viability ratio: 0.8

PPT1 (GeneID 5538)
- CDH1-null / parental viability ratio: 1.03

TEX30 (GeneID 93081)
- CDH1-null / parental viability ratio: 0.78

ADRA2C (GeneID 152)
- CDH1-null / parental viability ratio: 1.58

IL5RA (GeneID 3568)
- CDH1-null / parental viability ratio: 0.95

STK17B (GeneID 9262)
- CDH1-null / parental viability ratio: 1.12

CD36 (GeneID 948)
- CDH1-null / parental viability ratio: 1.02

SLC5A8 (GeneID 160728)
- CDH1-null / parental viability ratio: 1.24

SNRPA1 (GeneID 6627)
- CDH1-null / parental viability ratio: 0.97

TUBAL3 (GeneID 79861)
- CDH1-null / parental viability ratio: 0.9

TBX21 (GeneID 30009)
- CDH1-null / parental viability ratio: 1.17

LNP1 (GeneID 348801)
- CDH1-null / parental viability ratio: 1.12

MYOC (GeneID 4653)
- CDH1-null / parental viability ratio: 0.89

NUDT11 (GeneID 55190)
- CDH1-null / parental viability ratio: 1.61

IZUMO1R (GeneID 390243)
- CDH1-null / parental viability ratio: 1.09

PGAM2 (GeneID 5224)
- CDH1-null / parental viability ratio: 1.37

RBX1 (GeneID 9978)
- CDH1-null / parental viability ratio: 0.95

CCL26 (GeneID 10344)
- CDH1-null / parental viability ratio: 1.02
